No constants are given. Whether binding was seen depends on the method and setting. In cells and extracts the contact can be indirect. Some entries that bind do so weakly or less than the wild type.
Columns and labels:
[1] = molecular target: T1, P-selectin glycoprotein ligand 1 (PSGL-1) expressed on human cells (human) (UniProt Q14242); experiment: co-immunoprecipitation from PBMC lysate, anti-PSGL-1 Western blot
T1 sequence: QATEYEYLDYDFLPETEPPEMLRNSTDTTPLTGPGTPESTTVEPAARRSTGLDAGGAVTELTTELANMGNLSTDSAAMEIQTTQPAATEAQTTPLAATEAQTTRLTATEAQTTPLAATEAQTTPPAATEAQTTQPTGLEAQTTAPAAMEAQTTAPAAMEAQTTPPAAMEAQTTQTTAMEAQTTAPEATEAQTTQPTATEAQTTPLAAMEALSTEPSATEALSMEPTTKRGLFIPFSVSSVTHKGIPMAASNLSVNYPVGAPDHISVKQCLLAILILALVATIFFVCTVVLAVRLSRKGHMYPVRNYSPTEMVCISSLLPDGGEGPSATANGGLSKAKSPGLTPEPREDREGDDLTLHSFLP

By UniProt entry, the sequences of proteins in these tests, tags left out. Where a name states a change or a piece, a line headed by the entry shows the natural chain unless it says otherwise.
UniProt Q9H7M9: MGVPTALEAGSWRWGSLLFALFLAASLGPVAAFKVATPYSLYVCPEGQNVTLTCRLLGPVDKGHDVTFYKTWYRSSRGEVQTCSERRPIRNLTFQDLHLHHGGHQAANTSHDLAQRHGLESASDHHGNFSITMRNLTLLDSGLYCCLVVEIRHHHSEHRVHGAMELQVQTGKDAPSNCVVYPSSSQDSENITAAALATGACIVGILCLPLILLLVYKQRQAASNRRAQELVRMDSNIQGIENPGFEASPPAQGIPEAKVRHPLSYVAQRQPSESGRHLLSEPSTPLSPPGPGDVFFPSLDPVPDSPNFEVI

[2] = molecular target: T1, P-selectin glycoprotein ligand 1 (PSGL-1) expressed on human cells (human); experiment: co-immunoprecipitation with anti-VISTA antibody from untreated PBMC lysate, anti-PSGL-1 Western blot

- binding [1]: binds
- binding [2]: binds
Substance: VISTA (V-Domain Ig Suppressor of T Cell Activation) expressed on human cells (from UniProt Q9H7M9 33-311) (ligand)

Reference: patent publication US20230243836A1
